According to PubChem BioAssay AID720619 (Broad Institute, 2013):
The other results are listed elsewhere or left out. Further columns of the screen follow, without active or inactive calls.

Experiment: viability loss in HT-29 adenocarcinoma cells – cell-based, Alamar Blue fluorescence, several timepoints, dry powder, mechanism study for HRAS target identification, late-stage follow-up (AID 720619)
Conditions: HT-29 viability, 8 h treatment, at 35 µM

Compound | activity, lower = more toxic [%]
COc1ccc(N(C(=O)CCl)C(C(=O)NCCc2ccccc2)c2cccs2)cc1Cl (stereo not given) | -20.4
Cc1onc(C(=O)N2CCN(C(c3ccc(Cl)cc3)c3ccc(Cl)cc3)CC2)c1[N+](=O)[O-] | -10.9
CC(C)(C)OC(=O)NCCOCCOCCOc1ccc(N(C(=O)CCl)C(C(=O)NCCc2ccccc2)c2cccs2)cc1Cl (stereo not given) | -14.4
C#CCCCC(=O)NCCOCCOCCOc1ccc(N(C(=O)CCl)C(C(=O)NCCc2ccccc2)c2cccs2)cc1Cl (stereo not given) | -14.3
COC(=O)c1ccc([C@@H]2c3[nH]c4ccccc4c3C[C@@H](C(=O)OC)N2C(=O)CCl)cc1 | -9.45
